No constants are given. Whether binding was seen depends on the method and setting. In cells and extracts the contact can be indirect. Some binding calls cover weakened binding; strength is not graded here. Tags and fused reporters may be left off the sequences shown. Each block holds one molecule with its values, some of them ahead of it.
Assays:
[1] = molecular target: T1, BEX1 (wild-type, untagged, from BEX1 transgenic mouse hearts) (UniProt Q9R224); experiment: co-IP; BEX1 immunoprecipitated with anti-BEX1 (IgG as control) from BEX1 transgenic mouse hearts; Western blot for the endogenous partners
T1 sequence: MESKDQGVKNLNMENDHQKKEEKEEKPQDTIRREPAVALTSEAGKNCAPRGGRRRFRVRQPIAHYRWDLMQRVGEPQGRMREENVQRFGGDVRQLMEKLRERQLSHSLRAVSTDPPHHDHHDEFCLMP

Protein sequences, listed by entry. Tags and fused reporters are not part of them.
UniProt Q8CGC7: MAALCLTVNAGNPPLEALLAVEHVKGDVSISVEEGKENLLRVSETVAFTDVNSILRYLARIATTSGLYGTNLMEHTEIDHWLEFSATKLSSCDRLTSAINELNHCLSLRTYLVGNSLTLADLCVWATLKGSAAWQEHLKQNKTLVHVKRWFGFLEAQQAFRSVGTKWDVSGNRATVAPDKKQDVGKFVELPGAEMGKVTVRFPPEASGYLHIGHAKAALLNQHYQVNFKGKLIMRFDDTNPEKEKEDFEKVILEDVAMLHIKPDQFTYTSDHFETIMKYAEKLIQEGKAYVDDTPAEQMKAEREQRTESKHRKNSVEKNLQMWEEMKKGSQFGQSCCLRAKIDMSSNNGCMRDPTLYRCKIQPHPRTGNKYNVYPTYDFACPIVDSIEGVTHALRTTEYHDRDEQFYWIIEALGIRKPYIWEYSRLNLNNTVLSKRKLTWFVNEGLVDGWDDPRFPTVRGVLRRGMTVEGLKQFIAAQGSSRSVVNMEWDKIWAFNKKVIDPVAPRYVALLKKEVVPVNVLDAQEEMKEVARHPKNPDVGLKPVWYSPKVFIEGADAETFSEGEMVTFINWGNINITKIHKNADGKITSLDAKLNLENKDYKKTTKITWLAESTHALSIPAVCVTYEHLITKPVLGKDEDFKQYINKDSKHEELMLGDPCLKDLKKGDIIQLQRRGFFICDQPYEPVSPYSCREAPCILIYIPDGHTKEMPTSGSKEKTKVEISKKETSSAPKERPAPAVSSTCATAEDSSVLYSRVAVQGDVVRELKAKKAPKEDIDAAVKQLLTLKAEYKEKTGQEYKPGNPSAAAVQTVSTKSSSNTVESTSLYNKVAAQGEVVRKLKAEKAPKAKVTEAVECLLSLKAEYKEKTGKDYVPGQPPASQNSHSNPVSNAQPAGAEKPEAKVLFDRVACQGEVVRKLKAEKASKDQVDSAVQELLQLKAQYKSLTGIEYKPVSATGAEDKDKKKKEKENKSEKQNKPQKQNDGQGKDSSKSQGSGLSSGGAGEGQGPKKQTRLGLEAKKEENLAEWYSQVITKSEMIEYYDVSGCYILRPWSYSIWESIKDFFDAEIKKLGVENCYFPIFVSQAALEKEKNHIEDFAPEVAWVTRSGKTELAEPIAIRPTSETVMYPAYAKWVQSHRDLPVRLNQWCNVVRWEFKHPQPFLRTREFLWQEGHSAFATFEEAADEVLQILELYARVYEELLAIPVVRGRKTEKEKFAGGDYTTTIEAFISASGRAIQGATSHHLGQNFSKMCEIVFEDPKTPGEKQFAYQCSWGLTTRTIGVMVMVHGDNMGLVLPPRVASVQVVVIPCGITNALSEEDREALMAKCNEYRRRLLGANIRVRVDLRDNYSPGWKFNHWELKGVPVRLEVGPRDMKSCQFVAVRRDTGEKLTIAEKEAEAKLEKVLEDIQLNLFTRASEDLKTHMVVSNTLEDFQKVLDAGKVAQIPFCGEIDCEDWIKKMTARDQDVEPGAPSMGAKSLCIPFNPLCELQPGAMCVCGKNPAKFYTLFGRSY

[2] = molecular target: T2, GST-BEX1 (brain-expressed X-linked protein 1 fused to glutathione-S-transferase) (UniProt Q9R224); experiment: pull-down; GST-BEX1 incubated with cardiac extracts of WT mouse hearts, without micrococcal nuclease; Western blot of the partners; only the target purified
T2 sequence: T1 sequence

[3] = molecular target: Glutamyl-Prolyl-tRNA Synthetase (EPRS) (mouse (endogenous in mouse heart)) (UniProt Q8CGC7); experiment: co-IP; reverse: endogenous DDX1, DDX3x, EPRS, PHF11 or hnRNPH1 immunoprecipitated with specific antibodies (IgG as control) from a BEX1 transgenic mouse heart; Western blot for BEX1

binding [1]: binds | binding [2]: binds
Molecule: Glutamyl-Prolyl-tRNA Synthetase (EPRS) (from UniProt Q8CGC7 1-1512)

binding [3]: binds
B1: BEX1 (wild-type, untagged, from BEX1 transgenic mouse hearts) (protein, UniProt Q9R224 1-128)
chain: T1 sequence

— article PMC5709413
